Publication PMC10874396, “Spatiotemporal and direct capturing global substrates of lysine-modifying enzymes in living cells” (Nature Communications, 2024)
No constants are given. Whether binding was seen depends on the method and setting. In cells and extracts the contact can be indirect. Some results given as binding are weak or reduced against the parent protein; the word gives no strength.

Protein sequences, listed by entry. Tags and fused reporters are not part of them.
UniProt P07813: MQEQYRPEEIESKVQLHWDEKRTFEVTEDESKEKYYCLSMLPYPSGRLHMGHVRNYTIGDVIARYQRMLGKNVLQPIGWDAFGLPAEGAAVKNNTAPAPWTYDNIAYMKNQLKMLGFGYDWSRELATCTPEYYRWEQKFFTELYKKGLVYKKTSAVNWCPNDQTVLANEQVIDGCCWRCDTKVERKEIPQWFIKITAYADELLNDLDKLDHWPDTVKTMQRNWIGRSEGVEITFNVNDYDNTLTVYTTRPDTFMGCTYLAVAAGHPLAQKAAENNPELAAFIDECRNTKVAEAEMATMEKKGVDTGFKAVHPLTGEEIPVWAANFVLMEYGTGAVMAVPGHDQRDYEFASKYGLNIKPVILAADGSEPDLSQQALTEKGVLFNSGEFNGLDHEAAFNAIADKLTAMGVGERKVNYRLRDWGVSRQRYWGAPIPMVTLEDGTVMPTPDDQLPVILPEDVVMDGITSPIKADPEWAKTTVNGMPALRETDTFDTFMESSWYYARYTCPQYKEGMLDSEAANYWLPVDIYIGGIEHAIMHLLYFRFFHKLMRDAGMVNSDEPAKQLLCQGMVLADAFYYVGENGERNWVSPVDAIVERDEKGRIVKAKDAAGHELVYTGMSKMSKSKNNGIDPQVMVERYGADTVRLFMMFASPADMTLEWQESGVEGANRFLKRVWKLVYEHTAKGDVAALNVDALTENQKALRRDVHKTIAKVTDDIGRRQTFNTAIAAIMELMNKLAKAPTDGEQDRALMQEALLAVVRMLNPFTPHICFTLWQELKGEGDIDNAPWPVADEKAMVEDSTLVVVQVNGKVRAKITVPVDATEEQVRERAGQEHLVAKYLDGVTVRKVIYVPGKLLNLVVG
UniProt P21889: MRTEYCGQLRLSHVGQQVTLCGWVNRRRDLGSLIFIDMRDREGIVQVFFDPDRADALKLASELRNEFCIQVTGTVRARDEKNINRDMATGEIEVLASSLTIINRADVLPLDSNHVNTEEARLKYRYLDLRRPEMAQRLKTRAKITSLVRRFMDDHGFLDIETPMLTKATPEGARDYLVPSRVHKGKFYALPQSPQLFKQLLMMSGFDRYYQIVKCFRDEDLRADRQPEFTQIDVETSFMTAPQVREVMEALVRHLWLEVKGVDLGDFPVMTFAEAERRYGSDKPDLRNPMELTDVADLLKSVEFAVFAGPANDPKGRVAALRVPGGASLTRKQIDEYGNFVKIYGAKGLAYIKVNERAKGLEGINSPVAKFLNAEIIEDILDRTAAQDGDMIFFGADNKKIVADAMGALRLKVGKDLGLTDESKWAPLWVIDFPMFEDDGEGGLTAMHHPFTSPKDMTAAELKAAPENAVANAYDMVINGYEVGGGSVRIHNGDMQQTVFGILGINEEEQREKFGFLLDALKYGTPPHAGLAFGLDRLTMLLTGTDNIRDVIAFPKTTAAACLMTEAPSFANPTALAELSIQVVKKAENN
UniProt P0AG30: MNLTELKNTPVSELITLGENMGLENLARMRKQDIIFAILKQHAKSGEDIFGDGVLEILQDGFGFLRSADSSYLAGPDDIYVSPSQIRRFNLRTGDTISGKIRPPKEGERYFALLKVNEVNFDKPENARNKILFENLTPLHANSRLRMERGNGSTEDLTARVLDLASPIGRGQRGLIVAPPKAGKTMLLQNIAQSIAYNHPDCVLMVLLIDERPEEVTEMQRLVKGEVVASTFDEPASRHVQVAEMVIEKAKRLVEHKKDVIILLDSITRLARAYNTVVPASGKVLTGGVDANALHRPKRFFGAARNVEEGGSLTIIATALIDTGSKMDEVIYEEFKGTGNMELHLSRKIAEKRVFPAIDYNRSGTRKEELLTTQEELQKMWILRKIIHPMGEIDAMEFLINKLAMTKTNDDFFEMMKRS
UniProt P0ACI0: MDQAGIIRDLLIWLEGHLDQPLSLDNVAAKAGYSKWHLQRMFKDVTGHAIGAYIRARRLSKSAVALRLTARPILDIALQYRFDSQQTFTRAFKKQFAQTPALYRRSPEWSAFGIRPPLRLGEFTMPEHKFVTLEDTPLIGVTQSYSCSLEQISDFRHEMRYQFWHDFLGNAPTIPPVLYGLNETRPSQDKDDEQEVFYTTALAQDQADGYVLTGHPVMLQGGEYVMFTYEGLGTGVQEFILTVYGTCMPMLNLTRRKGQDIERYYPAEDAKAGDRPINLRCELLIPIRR
UniProt P0A6P1: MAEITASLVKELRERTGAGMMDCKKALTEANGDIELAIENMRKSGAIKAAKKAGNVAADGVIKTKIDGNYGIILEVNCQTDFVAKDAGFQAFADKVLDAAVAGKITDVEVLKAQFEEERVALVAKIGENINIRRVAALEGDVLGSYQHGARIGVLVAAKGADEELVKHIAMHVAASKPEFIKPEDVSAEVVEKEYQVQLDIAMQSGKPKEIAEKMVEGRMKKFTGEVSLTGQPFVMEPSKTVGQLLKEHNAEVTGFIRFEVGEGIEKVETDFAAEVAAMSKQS

T1: TmcA-R457o-NBAK (E. coli) (UniProt P76562)
T1 sequence (chain, o-NBAK (o-nitrobenzyl alcohol-derived lysine) at 457): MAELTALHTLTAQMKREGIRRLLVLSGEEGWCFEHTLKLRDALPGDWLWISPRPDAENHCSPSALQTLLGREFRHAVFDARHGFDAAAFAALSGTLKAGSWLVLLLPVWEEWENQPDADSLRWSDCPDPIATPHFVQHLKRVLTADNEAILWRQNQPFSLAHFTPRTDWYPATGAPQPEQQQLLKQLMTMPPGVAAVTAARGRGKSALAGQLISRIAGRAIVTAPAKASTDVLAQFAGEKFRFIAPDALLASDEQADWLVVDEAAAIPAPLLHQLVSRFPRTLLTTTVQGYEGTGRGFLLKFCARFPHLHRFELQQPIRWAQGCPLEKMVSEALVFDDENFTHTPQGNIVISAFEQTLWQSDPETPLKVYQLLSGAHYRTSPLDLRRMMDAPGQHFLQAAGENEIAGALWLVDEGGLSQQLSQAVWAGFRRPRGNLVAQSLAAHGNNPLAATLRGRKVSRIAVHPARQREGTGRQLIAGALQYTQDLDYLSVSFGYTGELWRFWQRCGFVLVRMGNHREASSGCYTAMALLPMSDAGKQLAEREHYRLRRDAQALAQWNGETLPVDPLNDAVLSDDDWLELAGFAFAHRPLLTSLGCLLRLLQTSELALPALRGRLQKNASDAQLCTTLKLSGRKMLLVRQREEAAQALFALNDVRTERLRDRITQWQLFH

T2: YiaC-F75o-NBAK (E. coli) (UniProt P37664)
T2 sequence (chain, o-NBAK (o-nitrobenzyl alcohol-derived lysine) at 75): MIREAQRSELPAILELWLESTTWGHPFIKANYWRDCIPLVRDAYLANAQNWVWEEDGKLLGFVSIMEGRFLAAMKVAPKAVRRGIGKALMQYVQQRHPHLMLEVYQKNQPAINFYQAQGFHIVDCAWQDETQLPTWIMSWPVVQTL

T3: YjaB-F77o-NBAK (E. coli) (UniProt P09163)
T3 sequence (chain, o-NBAK (o-nitrobenzyl alcohol-derived lysine) at 77): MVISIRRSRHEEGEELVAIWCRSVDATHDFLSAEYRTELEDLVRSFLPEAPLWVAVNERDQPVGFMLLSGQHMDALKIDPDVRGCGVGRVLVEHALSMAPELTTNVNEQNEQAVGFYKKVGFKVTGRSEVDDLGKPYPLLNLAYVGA


target: T1, TmcA-R457o-NBAK (E. coli); assay: cross-linking; crosslinked peptides/sites between the o-NBAK enzyme and substrate lysines identified by LC-MS/MS (MeroX) directly from cell lysate samples of in-cell crosslinked E. coli

| Molecule | binding |
| --- | --- |
| leuS (from UniProt P07813 1-860) | binds |
| aspS (from UniProt P21889 1-590) | binds |
| acnB (protein, UniProt P36683 1-865) MLEEYRKHVAERAAEGIAPKPLDANQMAALVELLKNPPAGEEEFLLDLLTNRVPPGVDEAAYVKAGFLAAIAKGEAKSPLLTPEKAIELLGTMQGGYNIHPLIDALDDAKLAPIAAKALSHTLLMFDNFYDVEEKAKAGNEYAKQVMQSWADAEWFLNRPALAEKLTVTVFKVTGETNTDDLSPAPDAWSRPDIPLHALAMLKNAREGIEPDQPGVVGPIKQIEALQQKGFPLAYVGDVVGTGSSRKSATNSVLWFMGDDIPHVPNKRGGGLCLGGKIAPIFFNTMEDAGALPIEVDVSNLNMGDVIDVYPYKGEVRNHETGELLATFELKTDVLIDEVRAGGRIPLIIGRGLTTKAREALGLPHSDVFRQAKDVAESDRGFSLAQKMVGRACGVKGIRPGAYCEPKMTSVGSQDTTGPMTRDELKDLACLGFSADLVMQSFCHTAAYPKPVDVNTHHTLPDFIMNRGGVSLRPGDGVIHSWLNRMLLPDTVGTGGDSHTRFPIGISFPAGSGLVAFAAATGVMPLDMPESVLVRFKGKMQPGITLRDLVHAIPLYAIKQGLLTVEKKGKKNIFSGRILEIEGLPDLKVEQAFELTDASAERSAAGCTIKLNKEPIIEYLNSNIVLLKWMIAEGYGDRRTLERRIQGMEKWLANPELLEADADAEYAAVIDIDLADIKEPILCAPNDPDDARPLSAVQGEKIDEVFIGSCMTNIGHFRAAGKLLDAHKGQLPTRLWVAPPTRMDAAQLTEEGYYSVFGKSGARIEIPGCSLCMGNQARVADGATVVSTSTRNFPNRLGTGANVFLASAELAAVAALIGKLPTPEEYQTYVAQVDKTAVDTYRYLNFNQLSQYTEKADGVIFQTAV | binds |
| pepD (protein, UniProt P15288 1-485) MSELSQLSPQPLWDIFAKICSIPHPSYHEEQLAEYIVGWAKEKGFHVERDQVGNILIRKPATAGMENRKPVVLQAHLDMVPQKNNDTVHDFTKDPIQPYIDGEWVKARGTTLGADNGIGMASALAVLADENVVHGPLEVLLTMTEEAGMDGAFGLQGNWLQADILINTDSEEEGEIYMGCAGGIDFTSNLHLDREAVPAGFETFKLTLKGLKGGHSGGEIHVGLGNANKLLVRFLAGHAEELDLRLIDFNGGTLRNAIPREAFATIAVAADKVDVLKSLVNTYQEILKNELAEKEKNLALLLDSVANDKAALIAKSRDTFIRLLNATPNGVIRNSDVAKGVVETSLNVGVVTMTDNNVEIHCLIRSLIDSGKDYVVSMLDSLGKLAGAKTEAKGAYPGWQPDANSPVMHLVRETYQRLFNKTPNIQIIHAGLECGLFKKPYPEMDMVSIGPTITGPHSPDEQVHIESVGHYWTLLTELLKEIPAK | binds |
| gatD (protein, UniProt P0A9S3 1-346) MKSVVNDTDGIVRVAESVIPEIKHQDEVRVKIASSGLCGSDLPRIFKNGAHYYPITLGHEFSGYIDAVGSGVDDLHPGDAVACVPLLPCFTCPECLKGFYSQCAKYDFIGSRRDGGFAEYIVVKRKNVFALPTDMPIEDGAFIEPITVGLHAFHLAQGCENKNVIIIGAGTIGLLAIQCAVALGAKSVTAIDISSEKLALAKSFGAMQTFNSSEMSAPQMQSVLRELRFNQLILETAGVPQTVELAVEIAGPHAQLALVGTLHQDLHLTSATFGKILRKELTVIGSWMNYSSPWPGQEWETASRLLTERKLSLEPLIAHRGSFESFAQAVRDIARNAMPGKVLLIP | binds |
| hsdR (protein, UniProt P08956 1-1170) MMNKSNFEFLKGVNDFTYAIACAAENNYPDDPNTTLIKMRMFGEATAKHLGLLLNIPPCENQHDLLRELGKIAFVDDNILSVFHKLRRIGNQAVHEYHNDLNDAQMCLRLGFRLAVWYYRLVTKDYDFPVPVFVLPERGENLYHQEVLTLKQQLEQQVREKAQTQAEVEAQQQKLVALNGYIAILEGKQQETEAQTQARLAALEAQLAEKNAELAKQTEQERKAYHKEITDQAIKRTLNLSEEESRFLIDAQLRKAGWQADSKTLRFSKGARPEPGVNKAIAEWPTGKDETGNQGFADYVLFVGLKPIAVVEAKRNNIDVPARLNESYRYSKCFDNGFLRETLLEHYSPDEVHEAVPEYETSWQDTSGKQRFKIPFCYSTNGREYRATMKTKSGIWYRDVRDTRNMSKALPEWHRPEELLEMLGSEPQKQNQWFADNPGMSELGLRYYQEDAVRAVEKAIVKGQQEILLAMATGTGKTRTAIAMMFRLIQSQRFKRILFLVDRRSLGEQALGAFEDTRINGDTFNSIFDIKGLTDKFPEDSTKIHVATVQSLVKRTLQSDEPMPVARYDCIVVDEAHRGYILDKEQTEGELQFRSQLDYVSAYRRILDHFDAVKIALTATPALHTVQIFGEPVYRYTYRTAVIDGFLIDQDPPIQIITRNAQEGVYLSKGEQVERISPQGEVINDTLEDDQDFEVADFNRGLVIPAFNRAVCNELTNYLDPTGSQKTLVFCVTNAHADMVVEELRAAFKKKYPQLEHDAIIKITGDADKDARKVQTMITRFNKERLPNIVVTVDLLTTGVDIPSICNIVFLRKVRSRILYEQMKGRATRLCPEVNKTSFKIFDCVDIYSTLESVDTMRPVVVRPKVELQTLVNEITDSETYKITEADGRSFAEHSHEQLVAKLQRIIGLATFNRDRSETIDKQVRRLDELCQDAAGVNFNGFASRLREKGPHWSAEVFNKLPGFIARLEKLKTDINNLNDAPIFLDIDDEVVSVKSLYGDYDTPQDFLEAFDSLVQRSPNAQPALQAVINRPRDLTRKGLVELQEWFDRQHFEESSLRKAWKETRNEDIAARLIGHIRRAAVGDALKPFEERVDHALTRIKGENDWSSEQLSWLDRLAQALKEKVVLDDDVFKTGNFHRRGGKAMLQRTFDDNLDTLLGKFSDYIWDELA | binds |

target: T1, TmcA-R457o-NBAK (E. coli); assay: cross-linking; photo-crosslinking in living E. coli BL21(DE3) cells expressing the o-NBAK enzyme (365 nm UV 20 min on ice, -UV as control); lysis, Ni-NTA enrichment, SDS-PAGE, bands above the free enzyme cut, LC-MS/MS with label-free quantification (+UV/-UV ratio >2, p < 0.05)

| Molecule | binding |
| --- | --- |
| FolC (protein, UniProt P08192 1-422) MIIKRTPQAASPLASWLSYLENLHSKTIDLGLERVSLVAARLGVLKPAPFVFTVAGTNGKGTTCRTLESILMAAGYKVGVYSSPHLVRYTERVRVQGQELPESAHTASFAEIESARGDISLTYFEYGTLSALWLFKQAQLDVVILEVGLGGRLDATNIVDADVAVVTSIALDHTDWLGPDRESIGREKAGIFRSEKPAIVGEPEMPSTIADVAQEKGALLQRRGVEWNYSVTDHDWAFSDAHGTLENLPLPLVPQPNAATALAALRASGLEVSENAIRDGIASAILPGRFQIVSESPRVIFDVAHNPHAAEYLTGRMKALPKNGRVLAVIGMLHDKDIAGTLAWLKSVVDDWYCAPLEGPRGATAEQLLEHLGNGKSFDSVAQAWDAAMADAKAEDTVLVCGSFHTVAHVMEVIDARRSGGK | binds |
| MTOX (protein, UniProt P40874 1-372) MKYDLIIIGSGSVGAAAGYYATRAGLNVLMTDAHMPPHQHGSHHGDTRLIRHAYGEGEKYVPLVLRAQTLWDELSRHNEEDPIFVRSGVINLGPADSTFLANVAHSAEQWQLNVEKLDAQGIMARWPEIRVPDNYIGLFETDSGFLRSELAIKTWIQLAKEAGCAQLFNCPVTAIRHDDDGVTIETADGEYQAKKAIVCAGTWVKDLLPELPVQPVRKVFAWYQADGRYSVKNKFPAFTGELPNGDQYYGFPAENDALKIGKHNGGQVIHSADERVPFAEVASDGSEAFPFLRNVLPGIGCCLYGAACTYDNSPDEDFIIDTLPGHDNTLLITGLSGHGFKFASVLGEIAADFAQDKKSDFDLTPFRLSRFQ | binds |

target: T2, YiaC-F75o-NBAK (E. coli); assay: as above

| Molecule | binding |
| --- | --- |
| FKBP-type 22 kDa peptidyl-prolyl cis-trans isomerase (FKBP22) (protein, UniProt P0A9L3 1-206) MTTPTFDTIEAQASYGIGLQVGQQLSESGLEGLLPEALVAGIADALEGKHPAVPVDVVHRALREIHERADAVRRQRFQAMAAEGVKYLEENAKKEGVNSTESGLQFRVINQGEGAIPARTDRVRVHYTGKLIDGTVFDSSVARGEPAEFPVNGVIPGWIEALTLMPVGSKWELTIPQELAYGERGAGASIPPFSTLVFEVELLEIL | binds |

target: T3, YjaB-F77o-NBAK (E. coli); assay: as above

| Molecule | binding |
| --- | --- |
| Rho (from UniProt P0AG30 1-419) | binds |
| Rob (from UniProt P0ACI0 1-289) | binds |
| EF-Ts (from UniProt P0A6P1 1-283) | binds |
